Assay results: publication PMC8062039
No constants are given. Whether binding was seen depends on the method and setting. Binding seen in cells or lysates may run through a third protein. Where a sequence is shown, tags or fusion partners need not be part of it.

Target: T1, FLAG tagged TBC1D24 (UniProt Q9ULP9)
T1 sequence: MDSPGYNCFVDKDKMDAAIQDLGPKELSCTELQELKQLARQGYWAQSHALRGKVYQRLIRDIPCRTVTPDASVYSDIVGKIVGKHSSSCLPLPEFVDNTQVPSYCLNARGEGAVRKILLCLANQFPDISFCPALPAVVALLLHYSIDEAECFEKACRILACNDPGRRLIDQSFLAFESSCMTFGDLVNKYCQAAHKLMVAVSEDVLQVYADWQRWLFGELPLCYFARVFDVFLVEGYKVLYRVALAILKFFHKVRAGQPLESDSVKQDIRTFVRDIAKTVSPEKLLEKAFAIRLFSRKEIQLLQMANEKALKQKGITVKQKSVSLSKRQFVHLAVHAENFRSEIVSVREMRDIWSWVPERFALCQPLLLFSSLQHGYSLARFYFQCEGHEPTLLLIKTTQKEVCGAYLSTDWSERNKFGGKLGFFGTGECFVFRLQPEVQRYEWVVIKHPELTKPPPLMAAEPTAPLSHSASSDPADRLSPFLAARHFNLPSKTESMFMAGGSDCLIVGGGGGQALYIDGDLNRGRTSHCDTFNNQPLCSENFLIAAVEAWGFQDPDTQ
Assay: co-IP; Neuro2a cells transfected with FLAG tagged TBC1D24, lysed 48 hrs later in NETN buffer (20 mM Tris-HCl pH 8.0, 1 mM EDTA, 100 mM NaCl, 0.5% NP-40); anti-FLAG antibody or control rabbit IgG on Protein G Sepharose, overnight at 4°C; washed four times with NETN200 (200 mM NaCl); blots for Impdh, Ctps and FLAG

Q: How did the binding turn out when “cytidine-5'-triphosphate synthase (Ctps) (mouse (endogenous in Neuro2a))” was run?
A: no binding
